Results are given in words; binding and its absence hold for the method and conditions named. Binding seen in cells or lysates may run through a third protein. Some results given as binding are weak or reduced against the parent protein; the word gives no strength. Values belong to the molecule of their own block, whether it stands above or below them.
Molecular target: ubiquitin-specific protease 7 (USP7) (human (endogenous in KYSE150 and TE1)) (UniProt Q93009)
Experiment: co-IP; endogenous proteins in lysates of KYSE150 and TE1 cells; indicated primary antibodies or isotype control IgG, protein A/G magnetic beads, washed with NP-40 buffer, western blot; also in cells overexpressing circNF1 or with ANXA1 knocked down

Sequences of proteins named here, by UniProt entry; tags and fusion partners are left off. Residues count along the entry.
UniProt Q93009: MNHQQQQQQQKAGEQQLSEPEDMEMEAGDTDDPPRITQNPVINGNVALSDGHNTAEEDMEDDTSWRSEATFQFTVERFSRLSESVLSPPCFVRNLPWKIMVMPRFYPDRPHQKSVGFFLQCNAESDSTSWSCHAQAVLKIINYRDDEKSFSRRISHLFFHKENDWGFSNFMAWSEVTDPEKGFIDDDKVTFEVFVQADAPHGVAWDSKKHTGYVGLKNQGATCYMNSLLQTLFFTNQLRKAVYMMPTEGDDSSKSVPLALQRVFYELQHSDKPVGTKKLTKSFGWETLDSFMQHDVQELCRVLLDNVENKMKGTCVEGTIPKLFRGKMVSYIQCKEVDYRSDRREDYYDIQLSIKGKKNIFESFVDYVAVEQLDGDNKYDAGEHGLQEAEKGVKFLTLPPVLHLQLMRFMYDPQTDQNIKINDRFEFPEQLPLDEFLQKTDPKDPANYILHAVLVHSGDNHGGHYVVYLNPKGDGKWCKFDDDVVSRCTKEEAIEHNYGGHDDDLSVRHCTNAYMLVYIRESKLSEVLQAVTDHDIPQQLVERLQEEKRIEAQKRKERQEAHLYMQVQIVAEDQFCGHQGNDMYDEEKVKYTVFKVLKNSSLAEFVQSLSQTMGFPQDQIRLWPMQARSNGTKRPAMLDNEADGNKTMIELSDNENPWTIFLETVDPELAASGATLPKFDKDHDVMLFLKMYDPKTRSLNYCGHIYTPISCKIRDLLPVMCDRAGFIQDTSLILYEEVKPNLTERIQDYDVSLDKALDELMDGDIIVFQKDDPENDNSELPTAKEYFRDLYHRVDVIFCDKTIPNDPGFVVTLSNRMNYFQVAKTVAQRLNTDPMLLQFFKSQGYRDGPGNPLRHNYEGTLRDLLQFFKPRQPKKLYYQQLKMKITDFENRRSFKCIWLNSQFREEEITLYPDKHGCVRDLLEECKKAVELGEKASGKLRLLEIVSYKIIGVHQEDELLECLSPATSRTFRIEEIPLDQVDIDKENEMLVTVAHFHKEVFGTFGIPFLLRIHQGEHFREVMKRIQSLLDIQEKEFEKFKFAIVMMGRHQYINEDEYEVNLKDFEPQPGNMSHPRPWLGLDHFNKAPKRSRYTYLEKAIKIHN
UniProt Q9NZQ7, residues 19-290: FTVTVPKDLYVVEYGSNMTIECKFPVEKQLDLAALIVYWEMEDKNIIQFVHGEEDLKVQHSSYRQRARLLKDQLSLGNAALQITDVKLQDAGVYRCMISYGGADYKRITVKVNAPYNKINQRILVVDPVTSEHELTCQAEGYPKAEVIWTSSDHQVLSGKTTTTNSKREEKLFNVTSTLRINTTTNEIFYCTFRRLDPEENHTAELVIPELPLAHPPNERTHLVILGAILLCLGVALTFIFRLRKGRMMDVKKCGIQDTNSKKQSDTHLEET

Molecule: programmed cell death ligand 1 (PD-L1) (from UniProt Q9NZQ7 19-290)
- binding: binds

- binding: binds
B1: annexin A1 (ANXA1) (protein, UniProt P04083 1-346)
chain: MAMVSEFLKQAWFIENEEQEYVQTVKSSKGGPGSAVSPYPTFNPSSDVAALHKAIMVKGVDEATIIDILTKRNNAQRQQIKAAYLQETGKPLDETLKKALTGHLEEVVLALLKTPAQFDADELRAAMKGLGTDEDTLIEILASRTNKEIRDINRVYREELKRDLAKDITSDTSGDFRNALLSLAKGDRSEDFGVNEDLADSDARALYEAGERRKGTDVNVFNTILTTRSYPQLRRVFQKYTKYSKHDMNKVLDLELKGDIEKCLTAIVKCATSKPAFFAEKLHQAMKGVGTRHKALIRIMVSRSEIDMNDIKAFYQKMYGISLCQAILDETKGDYEKILVALCGGN
